According to patent US20040229950A1, “Method and composition with conjugated linoleic acid esters” (priority 2002, published 2004):

Tested on: Human platelets
Test: Fatty acid content of platelet lipids after CLA treatment (gas liquid chromatography)
Type: cell-based
Settings: platelets treated 2 hours, 25 μM; for CLA content (% total lipids) 9Z, 11Z-: content of the 9Z, 11Z isomer; for CLA content (% total lipids) 10E, 12Z-: content of the 10E, 12Z isomer

Structure (SMILES) | CLA content (% total lipids) 9Z, 11Z- | CLA content (% total lipids) 10E, 12Z-
CCCCCCC=CC=CCCCCCCCC(=O)O [9Z, 11Z-CLA, 9,11-octadecadienoic acid] | 0.23 % total lipids | 0.03 % total lipids
CCCCCC=CC=CCCCCCCCCC(=O)O [10E, 12Z-CLA, 10,12-octadecadienoic acid] | 0.03 % total lipids | 0.66 % total lipids
